Source: patent US20200362350

Protein sequences, listed by entry. Tags and fused reporters are not part of them. Lines headed by an entry give the natural chain unless they say otherwise; changes in a name come on top.
UniProt Q8K3Y3: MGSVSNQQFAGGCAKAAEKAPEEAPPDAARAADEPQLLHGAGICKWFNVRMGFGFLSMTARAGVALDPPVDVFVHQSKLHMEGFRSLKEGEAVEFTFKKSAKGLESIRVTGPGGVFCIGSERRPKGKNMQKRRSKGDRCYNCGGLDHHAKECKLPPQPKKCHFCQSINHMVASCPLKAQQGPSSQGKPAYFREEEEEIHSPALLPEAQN

Assays:
[1] = target: Lin28a (16-184) with 9-residue linker deletion 9-residue internal deletion in linker (Mus musculus) (UniProt Q8K3Y3); experiment: EMSA; details: deletion of up to 9 linker residues supports binding; purified recombinant protein; protein details: His6 removed by TEV; label: 32P
[2] = target: Lin28a (35-187) with 9-residue linker deletion 9-residue internal deletion in linker (Mus musculus) (UniProt Q8K3Y3); experiment: EMSA; details: fragment of pre-let-7f-1; linker deletion tolerated; purified recombinant protein; protein details: His6 removed by TEV; label: 32P

UUAGGGCAGAGAUUUUGCCCACAAGGAGUU [preE-let-7d full]
binding result [1]: binds

GUGGGGUAGUGAUUUUACCCUGUUUAGGAGAU [preE-let-7f-1 (fragment)]
binding result [2]: binds

Construct, isoform or probe ends are uncertain for at least one entry.
